# Data taken from the supplement of paper PMC4604168 (melanoma cell lines).
# This is one part of the list. Many values rest on one well or one pass, so single values are uncertain.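 The apoptosis fraction was the count of cleaved-PARP antibody-stained nuclei relative to all DNA-stained nuclei, imaged in 1,536-well plates. Screening doses were set so most cells survived, and baseline and induced cleaved-PARP levels vary greatly across cell lines.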
# System: CBRC013 (line from a melanoma biopsy)
# Test: cleaved PARP positive nuclei fraction relative to DMSO control; melanoma cells; higher = more apoptosis
# Conditions: library dose: low library concentration; 72 h
row,SMILES,cleaved PARP positive nuclei fraction
1,"CN(NC(=O)CC(=O)NN(C)C(=S)c1ccccc1)C(=S)c1ccccc1 + CCCCCCCCCCCC1=C(O)C(=O)C=C(O)C1=O [Embelin] (first compound 0.006 µM, partner dose 1.2 µM)",73.7%
2,"COc1ccc2c(c1)CCC1C2CCC2(C)C(NCCCCCCN3C(=O)C=CC3=O)CCC12 (stereo unspecified) + O=c1cc(-c2cccc3c2Sc2ccccc2S3)oc(N2CCOCC2)c1 [KU55933] (first compound 0.4 µM, partner dose 1 µM)",98.6%
3,"COc1ccc2c(c1)CCC1C2CCC2(C)C(NCCCCCCN3C(=O)C=CC3=O)CCC12 (stereo unspecified) + Oc1nc(-c2ccc(C(F)(F)F)cc2)nc2c1CSCC2 [XAV939] (first compound 0.4 µM, partner dose 2 µM)",188%
4,"O=C(O)c1ccc(-c2c[nH]c3ncc(-c4ccccc4)cc23)cc1C1CCCC1 + COc1ccc2c(c1)CCC1C2CCC2(C)C(NCCCCCCN3C(=O)C=CC3=O)CCC12 [U73122] (first compound 0.16 µM, partner dose 0.4 µM)",28.8%
5,"CCc1ccc(CCOc2ccc(CC3SC(=O)NC3=O)cc2)nc1 (stereo unspecified) [pioglitazone] + Oc1nc(-c2ccc(C(F)(F)F)cc2)nc2c1CSCC2 [XAV939] (first compound 2 µM, partner dose 2 µM)",249%
6,"COc1cc2c(Oc3ccc4[nH]c(C)cc4c3F)ncnc2cc1OCCCN1CCCC1 [cediranib] + COc1cc2ncnc(Nc3ccc(Oc4ccccc4)cc3)c2cc1OC [SrcI1] (first compound 0.4 µM, partner dose 2 µM)",147%
7,"N#Cc1c(O)c2c(-c3ccc(-c4ccccc4O)cc3)csc2[nH]c1=O + COc1cc2ncnc(Nc3ccc(Oc4ccccc4)cc3)c2cc1OC [SrcI1] (first compound 2 µM, partner dose 2 µM)",605%
8,"CN(NC(=O)CC(=O)NN(C)C(=S)c1ccccc1)C(=S)c1ccccc1 + CC(C)CCN1c2nc(Nc3cc(F)c(O)c(F)c3)ncc2N(C)C(=O)C1C [BID1870] (first compound 0.006 µM, partner dose 0.2 µM)",193%
9,"CCc1ccc(CCOc2ccc(CC3SC(=O)NC3=O)cc2)nc1 (stereo unspecified) [pioglitazone] + N#Cc1c(O)c2c(-c3ccc(-c4ccccc4O)cc3)csc2[nH]c1=O [A769662] (first compound 2 µM, partner dose 2 µM)",345%
10,"Oc1nc(-c2ccc(C(F)(F)F)cc2)nc2c1CSCC2 + CCCCCCCCCCCC1=C(O)C(=O)C=C(O)C1=O [Embelin] (first compound 2 µM, partner dose 1.2 µM)",96.2%
11,"CCN(CC)CCCCNc1ncc2cc(-c3cc(OC)cc(OC)c3)c(NC(=O)NC(C)(C)C)nc2n1 + Cn1cc(/C=C2\C(=O)Nc3cccnc32)c2ccccc21 [GW441756] (first compound 0.1 µM, partner dose 0.4 µM)",150%
12,"CCc1ccc(CCOc2ccc(CC3SC(=O)NC3=O)cc2)nc1 (stereo unspecified) [pioglitazone] + Cn1cc(/C=C2\C(=O)Nc3cccnc32)c2ccccc21 [GW441756] (first compound 2 µM, partner dose 0.4 µM)",213%
13,"COc1ccc(COc2ccc(Cc3cnc(N)nc3N)cc2OC)cc1 + COc1cc2ncnc(Nc3ccc(Oc4ccccc4)cc3)c2cc1OC [SrcI1] (first compound 1 µM, partner dose 2 µM)",30.1%
14,"O=S(=O)(c1ccccc1)N(CC(F)(F)F)c1ccc(C(O)(C(F)(F)F)C(F)(F)F)cc1 + COc1cc2ncnc(Nc3ccc(Oc4ccccc4)cc3)c2cc1OC [SrcI1] (first compound 1.4 µM, partner dose 2 µM)",86.3%
15,"COc1ccc2c(c1)CCC1C2CCC2(C)C(NCCCCCCN3C(=O)C=CC3=O)CCC12 (stereo unspecified) + Cn1cc(/C=C2\C(=O)Nc3cccnc32)c2ccccc21 [GW441756] (first compound 0.4 µM, partner dose 0.4 µM)",79.6%
16,"CN(NC(=O)CC(=O)NN(C)C(=S)c1ccccc1)C(=S)c1ccccc1 + Cc1cc([N+](=O)[O-])ccc1NS(=O)(=O)c1cc(Cl)ccc1Cl [FH535] (first compound 0.006 µM, partner dose 1 µM)",532%
17,"N#Cc1c(O)c2c(-c3ccc(-c4ccccc4O)cc3)csc2[nH]c1=O + c1cc(-c2cnn3cc(-c4ccc(OCCN5CCCCC5)cc4)cnc23)ccn1 [Dorsomorphin] (first compound 2 µM, partner dose 0.4 µM)",67.3%
18,"CCc1ccc(CCOc2ccc(CC3SC(=O)NC3=O)cc2)nc1 (stereo unspecified) [pioglitazone] + COc1ccc(COc2ccc(Cc3cnc(N)nc3N)cc2OC)cc1 [GW2580] (first compound 2 µM, partner dose 1 µM)",116%

# An excerpt of these results, as tab-separated lines:
row	SMILES	cleaved PARP positive nuclei fraction
12	CCc1ccc(CCOc2ccc(CC3SC(=O)NC3=O)cc2)nc1 (stereo unspecified) [pioglitazone] + Cn1cc(/C=C2\C(=O)Nc3cccnc32)c2ccccc21 [GW441756] (first compound 2 µM, partner dose 0.4 µM)	213%
13	COc1ccc(COc2ccc(Cc3cnc(N)nc3N)cc2OC)cc1 + COc1cc2ncnc(Nc3ccc(Oc4ccccc4)cc3)c2cc1OC [SrcI1] (first compound 1 µM, partner dose 2 µM)	30.1%

# Continuation.

row,SMILES,cleaved PARP positive nuclei fraction
1,"COc1cc2c(Oc3ccc4[nH]c(C)cc4c3F)ncnc2cc1OCCCN1CCCC1 [cediranib] + CCc1ccc(CCOc2ccc(CC3SC(=O)NC3=O)cc2)nc1 [pioglitazone] (first compound 0.4 µM, partner dose 2 µM)",175%
2,"COc1ccc(-c2ccc3c(N4CCOCC4)nc(N4C[C@@H](C)O[C@@H](C)C4)nc3n2)cc1CO + COc1cc2ncnc(Nc3ccc(Oc4ccccc4)cc3)c2cc1OC [SrcI1] (first compound 0.02 µM, partner dose 2 µM)",127%
3,"O=C(O)c1ccc(-c2c[nH]c3ncc(-c4ccccc4)cc23)cc1C1CCCC1 + O=S(=O)(c1ccccc1)N(CC(F)(F)F)c1ccc(C(O)(C(F)(F)F)C(F)(F)F)cc1 [T0901317] (first compound 0.16 µM, partner dose 1.4 µM)",39.1%
4,"COc1ccc(-c2ccc3c(N4CCOCC4)nc(N4C[C@@H](C)O[C@@H](C)C4)nc3n2)cc1CO + CCN(CC)CCCCNc1ncc2cc(-c3cc(OC)cc(OC)c3)c(NC(=O)NC(C)(C)C)nc2n1 [PD173074] (first compound 0.02 µM, partner dose 0.1 µM)",633%
5,"Oc1cc(-c2nc(-c3ccccc3)[nH]c2-c2ccncc2)ccc1Cl + O=C1NC(=O)/C(=C/c2ccc(-c3ccc(F)cc3O)o2)S1 [AS252424] (first compound 0.2 µM, partner dose 1 µM)",54.1%
6,"CCc1ccc(CCOc2ccc(CC3SC(=O)NC3=O)cc2)nc1 (stereo unspecified) [pioglitazone] + O=C(Nc1ccccc1)c1cc([N+](=O)[O-])ccc1Cl [GW9662] (first compound 2 µM, partner dose 2 µM)",50.7%
7,"COc1ccc2c(c1)CCC1C2CCC2(C)C(NCCCCCCN3C(=O)C=CC3=O)CCC12 (stereo unspecified) + O=C(O)C(=O)Nc1sc2c(c1C(=O)O)CCNC2 [TCS401] (first compound 0.4 µM, partner dose 1.66667 µM)",675%
8,"CN(C)S(=O)(=O)c1ccc2c(c1)/C(=C/c1cc3c([nH]1)CCCC3)C(=O)N2 + COc1cc(N2CCC(N3CCN(C)CC3)CC2)ccc1Nc1ncc(Cl)c(Nc2ccccc2S(=O)(=O)C(C)C)n1 [NVP-TAE684] (first compound 0.4 µM, partner dose 0.08 µM)",634%
9,"CN(C)S(=O)(=O)c1ccc2c(c1)/C(=C/c1cc3c([nH]1)CCCC3)C(=O)N2 + N#Cc1c(O)c2c(-c3ccc(-c4ccccc4O)cc3)csc2[nH]c1=O [A769662] (first compound 0.4 µM, partner dose 2 µM)",39.5%
10,"COc1ccc2c(c1)CCC1C2CCC2(C)C(NCCCCCCN3C(=O)C=CC3=O)CCC12 (stereo unspecified) + CC(C)CCN1c2nc(Nc3cc(F)c(O)c(F)c3)ncc2N(C)C(=O)C1C [BID1870] (first compound 0.4 µM, partner dose 0.2 µM)",66.4%
11,"CCc1ccc(CCOc2ccc(CC3SC(=O)NC3=O)cc2)nc1 (stereo unspecified) [pioglitazone] + Oc1cc(-c2nc(-c3ccccc3)[nH]c2-c2ccncc2)ccc1Cl [L779450] (first compound 2 µM, partner dose 0.2 µM)",143%
12,"CCc1ccc(CCOc2ccc(CC3SC(=O)NC3=O)cc2)nc1 (stereo unspecified) [pioglitazone] + CC(C)CCN1c2nc(Nc3cc(F)c(O)c(F)c3)ncc2N(C)C(=O)C1C [BID1870] (first compound 2 µM, partner dose 0.2 µM)",50.5%
13,"CN(NC(=O)CC(=O)NN(C)C(=S)c1ccccc1)C(=S)c1ccccc1 + O=c1cc(-c2cccc3c2Sc2ccccc2S3)oc(N2CCOCC2)c1 [KU55933] (first compound 0.006 µM, partner dose 1 µM)",76.1%
14,"O=C(O)c1ccc(-c2c[nH]c3ncc(-c4ccccc4)cc23)cc1C1CCCC1 + Oc1nc(-c2ccc(C(F)(F)F)cc2)nc2c1CSCC2 [XAV939] (first compound 0.16 µM, partner dose 2 µM)",375%
15,"COc1ccc(COc2ccc(Cc3cnc(N)nc3N)cc2OC)cc1 + COc1cc(N2CCC(N3CCN(C)CC3)CC2)ccc1Nc1ncc(Cl)c(Nc2ccccc2S(=O)(=O)C(C)C)n1 [NVP-TAE684] (first compound 1 µM, partner dose 0.08 µM)",178%
16,"COc1ccc2c(c1)CCC1C2CCC2(C)C(NCCCCCCN3C(=O)C=CC3=O)CCC12 (stereo unspecified) + c1cc(-c2cnn3cc(-c4ccc(OCCN5CCCCC5)cc4)cnc23)ccn1 [Dorsomorphin] (first compound 0.4 µM, partner dose 0.4 µM)",483%
17,"NCC(=O)Nc1ccc(-n2nc(C(F)(F)F)cc2-c2ccc3c(ccc4ccccc43)c2)cc1 + COc1ccc(COc2ccc(Cc3cnc(N)nc3N)cc2OC)cc1 [GW2580] (first compound 1 µM, partner dose 1 µM)",183%
18,"COc1cc2ncnc(Nc3ccc(Oc4ccccc4)cc3)c2cc1OC + COc1cc(N2CCC(N3CCN(C)CC3)CC2)ccc1Nc1ncc(Cl)c(Nc2ccccc2S(=O)(=O)C(C)C)n1 [NVP-TAE684] (first compound 2 µM, partner dose 0.08 µM)",94.3%
